{"source": "the supplement of paper PMC6411743", "note": "± gives the standard deviation of the averaged measurements. Only a part is listed here, and it is no random draw. Small differences around the control level are noise.", "data": [{"compound": "Nc1ncnc2c1ncn2[C@@H]1O[C@H](COP(=O)(O)OP(=O)(O)OP(=O)(O)O)[C@@H](O)[C@H]1O [adenosine triphosphate]", "test": "NP40-soluble protein abundance relative to vehicle (solubility fold change) (ratio); higher = more soluble protein in presence of ATP", "conditions": "concentration: 0.1mM", "in_short": "(§1)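 Eight concentrations, 0.1 to 10 mM, were tested on Jurkat crude lysate for 10 min at room temperature and then 3 min at 37 °C, in three independent experiments. The lysate was solubilised with 0.8% NP40 and benzonase, ultracentrifuged, and the supernatant TMT-labelled for LC-MS/MS. Each value is the fold change against the detergent-processed vehicle in its own replicate, from vsn-normalised intensities.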", "values": [{"target": "ITGB1 (UniProt P05556)", "NP40-soluble protein abundance": "0.9434 ± 0.0085"}, {"target": "DLAT (UniProt P10515)", "NP40-soluble protein abundance": "1.03 ± 0.17"}, {"target": "HCLS1 (UniProt P14317)", "NP40-soluble protein abundance": "0.975 ± 0.015"}, {"target": "PLEK (UniProt P08567)", "NP40-soluble protein abundance": "1.07 ± 0.063"}, {"target": "UniProt P06748 and related entries", "NP40-soluble protein abundance": "0.957 ± 0.022"}, {"target": "UniProt P04075 and related entries", "NP40-soluble protein abundance": "1.02 ± 0.048"}, {"target": "UniProt P06730 and related entries", "NP40-soluble protein abundance": "0.9997 ± 0.0059"}, {"target": "CTSB (UniProt P07858)", "NP40-soluble protein abundance": "0.956 ± 0.052"}, {"target": "PDIA4 (UniProt P13667)", "NP40-soluble protein abundance": "1.01 ± 0.041"}, {"target": "TSPAN13 (UniProt O95857)", "NP40-soluble protein abundance": "0.867 ± 0.068"}, {"target": "UniProt P15812 and related entries", "NP40-soluble protein abundance": "0.894 ± 0.056"}, {"target": "PTTG1 (UniProt O95997)", "NP40-soluble protein abundance": "0.913 ± 0.05"}, {"target": "UniProt P15170-2|P15170-3", "NP40-soluble protein abundance": "1.02 ± 0.043"}, {"target": "UniProt O96000 and related entries", "NP40-soluble protein abundance": "0.932 ± 0.14"}, {"target": "ICAM2 (UniProt P13598)", "NP40-soluble protein abundance": "0.904 ± 0.027"}, {"target": "UniProt P06454-2|B8ZZQ6 and related entries", "NP40-soluble protein abundance": "0.966 ± 0.061"}, {"target": "VAV1 (UniProt P15498)", "NP40-soluble protein abundance": "1.06 ± 0.095"}, {"target": "UniProt P14859-5|P14859-6", "NP40-soluble protein abundance": "0.899 ± 0.044"}, {"target": "FBXO45 (UniProt P0C2W1)", "NP40-soluble protein abundance": "0.972 ± 0.11"}, {"target": "UniProt P04424 and related entries", "NP40-soluble protein abundance": "0.995 ± 0.032"}, {"target": "UniProt P15813", "NP40-soluble protein abundance": "0.86 ± 0.11"}, {"target": "AKR1B1 (UniProt P15121)", "NP40-soluble protein abundance": "1.04 ± 0.12"}, {"target": "UniProt P05771-2|P05771", "NP40-soluble protein abundance": "1.03 ± 0.081"}, {"target": "CSTB (UniProt P04080)", "NP40-soluble protein abundance": "0.939 ± 0.066"}, {"target": "UniProt P13473-2|P13473 and related entries", "NP40-soluble protein abundance": "0.909 ± 0.044"}, {"target": "ACADS (UniProt P16219)", "NP40-soluble protein abundance": "1.06 ± 0.098"}, {"target": "UniProt P09693", "NP40-soluble protein abundance": "0.87 ± 0.044"}, {"target": "RALA (UniProt P11233)", "NP40-soluble protein abundance": "1.039 ± 0.0094"}, {"target": "UniProt P10398 and related entries", "NP40-soluble protein abundance": "1.1 ± 0.1"}, {"target": "UniProt P14316 and related entries", "NP40-soluble protein abundance": "0.9785 ± 0.008"}, {"target": "SOD1 (UniProt P00441)", "NP40-soluble protein abundance": "0.912 ± 0.033"}, {"target": "UniProt P06396-2", "NP40-soluble protein abundance": "0.976 ± 0.032"}, {"target": "UniProt P01116-2|P01116", "NP40-soluble protein abundance": "0.979 ± 0.062"}, {"target": "UniProt P16278 and related entries", "NP40-soluble protein abundance": "0.983 ± 0.021"}, {"target": "P15531-2|P22392-2|Q32Q12 (UniProt Q32Q12+P22392+P15531)", "NP40-soluble protein abundance": "0.942 ± 0.03"}, {"target": "UniProt P10747 and related entries", "NP40-soluble protein abundance": "0.929 ± 0.017"}, {"target": "UniProt P08559 and related entries", "NP40-soluble protein abundance": "1.03 ± 0.049"}]}, {"compound": "Nc1ncnc2c1ncn2[C@@H]1O[C@H](COP(=O)(O)OP(=O)(O)OP(=O)(O)O)[C@@H](O)[C@H]1O [adenosine triphosphate]", "test": "NP40-soluble protein abundance relative to vehicle (solubility fold change) (ratio); higher = more soluble protein in presence of ATP", "conditions": "concentration: 0.5mM", "in_short": "as §1", "values": [{"target": "ITGB1 (UniProt P05556)", "NP40-soluble protein abundance": "0.914 ± 0.021"}, {"target": "DLAT (UniProt P10515)", "NP40-soluble protein abundance": "1.19 ± 0.31"}, {"target": "HCLS1 (UniProt P14317)", "NP40-soluble protein abundance": "0.99 ± 0.053"}, {"target": "PLEK (UniProt P08567)", "NP40-soluble protein abundance": "1.08 ± 0.019"}, {"target": "UniProt P06748 and related entries", "NP40-soluble protein abundance": "0.9973 ± 0.0059"}, {"target": "UniProt P04075 and related entries", "NP40-soluble protein abundance": "1.02 ± 0.051"}, {"target": "UniProt P06730 and related entries", "NP40-soluble protein abundance": "1.05 ± 0.033"}, {"target": "CTSB (UniProt P07858)", "NP40-soluble protein abundance": "0.962 ± 0.02"}, {"target": "PDIA4 (UniProt P13667)", "NP40-soluble protein abundance": "1.03 ± 0.066"}, {"target": "TSPAN13 (UniProt O95857)", "NP40-soluble protein abundance": "0.814 ± 0.11"}, {"target": "UniProt P15812 and related entries", "NP40-soluble protein abundance": "0.924 ± 0.2"}, {"target": "PTTG1 (UniProt O95997)", "NP40-soluble protein abundance": "0.83 ± 0.029"}, {"target": "UniProt P15170-2|P15170-3", "NP40-soluble protein abundance": "1.03 ± 0.048"}, {"target": "UniProt O96000 and related entries", "NP40-soluble protein abundance": "0.936 ± 0.2"}, {"target": "ICAM2 (UniProt P13598)", "NP40-soluble protein abundance": "0.912 ± 0.1"}, {"target": "UniProt P06454-2|B8ZZQ6 and related entries", "NP40-soluble protein abundance": "1 ± 0.067"}, {"target": "VAV1 (UniProt P15498)", "NP40-soluble protein abundance": "1.04 ± 0.075"}, {"target": "UniProt P14859-5|P14859-6", "NP40-soluble protein abundance": "0.773 ± 0.051"}, {"target": "FBXO45 (UniProt P0C2W1)", "NP40-soluble protein abundance": "0.967 ± 0.066"}, {"target": "UniProt P04424 and related entries", "NP40-soluble protein abundance": "1.01 ± 0.046"}, {"target": "UniProt P15813", "NP40-soluble protein abundance": "0.859 ± 0.12"}, {"target": "AKR1B1 (UniProt P15121)", "NP40-soluble protein abundance": "1.04 ± 0.11"}, {"target": "UniProt P05771-2|P05771", "NP40-soluble protein abundance": "1.05 ± 0.067"}, {"target": "CSTB (UniProt P04080)", "NP40-soluble protein abundance": "0.916 ± 0.074"}, {"target": "UniProt P13473-2|P13473 and related entries", "NP40-soluble protein abundance": "0.856 ± 0.099"}, {"target": "ACADS (UniProt P16219)", "NP40-soluble protein abundance": "1.06 ± 0.071"}, {"target": "UniProt P09693", "NP40-soluble protein abundance": "0.9 ± 0.087"}, {"target": "RALA (UniProt P11233)", "NP40-soluble protein abundance": "1.07 ± 0.087"}, {"target": "UniProt P10398 and related entries", "NP40-soluble protein abundance": "1.34 ± 0.13"}, {"target": "UniProt P14316 and related entries", "NP40-soluble protein abundance": "1.04 ± 0.058"}, {"target": "SOD1 (UniProt P00441)", "NP40-soluble protein abundance": "0.879 ± 0.077"}, {"target": "UniProt P06396-2", "NP40-soluble protein abundance": "1.25 ± 0.048"}, {"target": "UniProt P01116-2|P01116", "NP40-soluble protein abundance": "0.973 ± 0.059"}, {"target": "UniProt P16278 and related entries", "NP40-soluble protein abundance": "0.963 ± 0.064"}, {"target": "P15531-2|P22392-2|Q32Q12 (UniProt Q32Q12+P22392+P15531)", "NP40-soluble protein abundance": "0.947 ± 0.023"}, {"target": "UniProt P10747 and related entries", "NP40-soluble protein abundance": "0.959 ± 0.064"}, {"target": "UniProt P08559 and related entries", "NP40-soluble protein abundance": "1.07 ± 0.051"}]}]}
